# In PubChem BioAssay AID1487 (National Center for Advancing Translational Sciences (NCATS), 2009):
# The other results are listed elsewhere or left out. Further columns of the screen follow, without active or inactive calls. The list favours compounds with an active or inconclusive main result. The note in brackets gives the kind of curve behind each potency; many fits are weak.
# Experiment: qHTS Assay for Modulators of Lamin A Splicing
# Conditions: HeLa LMNA splicing GFP/RFP minigene ratio, 48 h
# Outline: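 Read-out is the ratio of GFP to DsRed2 object intensity, acquired by 488 nm laser-scanning cytometry on HeLa lamin A-EGFP minigene reporter cells. Compound incubation 48 hrs at 37 °C in Opti-MEM with 2% FBS; DMSO 0.5% final.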
# [1] = measured here: RFP viability control channel
# [2] = measured here: GFP splicing reporter channel
SMILES,AC50 [1],AC50 [2]
OCCN1CCN(c2ncnc3c2sc2nc(N4CCOCC4)c4c(c23)CCC4)CC1,"31.6 µM [rising, single point]",
CCN(CC)S(=O)(=O)c1cc(NC(=O)C(C)N(C)CC(=O)Nc2c(C)cccc2C)ccc1C (stereo not drawn),"8.91 µM [rising, partial curve]",
O=C(Nc1ccc(Cl)c(Cl)c1)N1CC=CCC1,"22.4 µM [rising, single point]","15.8 µM [rising, single point]"
CC(C)CCNc1nc(N2CCCC2)c2c(c1C#N)CCN(C)C2,"35.5 µM [rising, single point]",
Cc1cc(-c2nn(-c3ccccc3F)cc2CN2CCC(O)CC2)c(C)s1,"0.02 µM [falling, full curve, poor fit]",
Nc1ccc2c(c1)C(=O)C(=O)c1ccccc1-2,"3.55 µM [falling, full curve]","3.55 µM [falling, full curve]"
NCc1c(O)ccc2ccccc12,,"0.112 µM [rising, single point]"
COc1ccc(-n2c(C)cc(C(=O)CN3C(=O)NC4(CCc5ccccc54)C3=O)c2C)cc1 (stereo not drawn),"22.4 µM [rising, single point]","35.5 µM [rising, single point]"
O=C(/C=C/c1ccc(Br)cc1)NCc1cccs1,"22.4 µM [rising, single point]","22.4 µM [rising, single point]"
COc1cccc(C2/C(=C(/O)c3cnn(-c4ccccc4)c3C)C(=O)C(=O)N2CCN(C)C)c1OC (stereo not drawn),"10 µM [rising, partial curve]",
CC1(C)CC(=O)C2=C(C1)Nc1[nH]n(-c3ccccc3)c(=O)c1C2c1ccc2c(c1)OCO2 (stereo not drawn),"35.5 µM [rising, single point]",
CCn1c(COc2c(C)cccc2C)nnc1SCc1nc2ccccc2c(=O)[nH]1,"10 µM [falling, partial curve, poor fit]","28.2 µM [falling, single point]"
Cc1ccc(S(=O)(=O)Nc2ccc(NC(=O)c3cccs3)cc2)cc1,"3.55 µM [rising, partial curve]",
Cc1ccc(N(CC(=O)NCc2ccc(F)cc2)C(=O)c2csnn2)cc1C,"0.0355 µM [rising, full curve, poor fit]",
CCCc1nc2ccccc2c(=O)n1/N=C/c1ccc(O)c(O)c1,"35.5 µM [rising, single point]",
CCOC(=O)N/N=C/c1cc(C)n(-c2cccc3ccccc23)c1C,"14.1 µM [rising, partial curve]","10 µM [rising, partial curve, poor fit]"
COc1ccc(CN2CCN(CCc3ccccc3)C(CCO)C2)cc1Cn1cncn1 (stereo not drawn),"1.26 µM [falling, partial curve]","2.24 µM [falling, single point]"
COc1ccccc1-c1nnc(SC(C(=O)c2c[nH]c3ccccc23)c2ccccc2)n1C (stereo not drawn),"0.0501 µM [rising, full curve]",

SMILES,AC50 [1],AC50 [2]
CCOC(=O)/C=C/C(=O)Nc1ccccc1C(=O)NC1CCCCC1,"31.6 µM [rising, single point]",
O=C(CCNS(=O)(=O)c1cccc2nsnc12)NCc1ccc(F)cc1,,"0.00398 µM [rising, full curve, poor fit]"
CCCOc1cccc(C(=O)NC(=S)Nc2cccc(C(F)(F)F)c2)c1,"35.5 µM [rising, single point]","22.4 µM [rising, single point]"
COc1ccc(OC)c(NC(=O)NNC(=O)CCCOc2ccc(Cl)cc2C)c1,"0.00316 µM [falling, full curve, poor fit]","0.794 µM [falling, full curve, poor fit]"
O=C(Nc1cccc(OCc2cc(=O)n3ccccc3n2)c1)Nc1cccc(C(F)(F)F)c1,,"0.447 µM [rising, single point]"
O=C(CS(=O)(=O)c1cn(Cc2cccc(F)c2)c2ccccc12)N1CCOCC1,"15.8 µM [rising, single point]","0.708 µM [rising, partial curve]"
CC(=O)Nc1ccc(SCC(=O)c2cc(C)n(-c3ccccc3)c2C)cc1,"14.1 µM [rising, partial curve]",
CCOc1ccccc1CNC(=O)c1oc2c(c1C)-c1nn(Cc3cccc(Cl)c3)cc1CC2,"15.8 µM [falling, partial curve]","11.2 µM [falling, partial curve]"
Cc1ccc2c(=O)c(C(=O)c3ccc(Cl)cc3)cn(CC(=O)Nc3ccc4c(c3)OCCO4)c2n1,,"0.00447 µM [rising, full curve, poor fit]"
CC(C)(C)c1ccc(NC(=O)N2CCCN(c3ccc([N+](=O)[O-])cn3)CC2)cc1,"0.02 µM [falling, full curve, poor fit]",
CC(C)CNC(=O)CN1C(=O)NC(Cc2c[nH]c3ccccc23)C1=O (stereo not drawn),"0.0224 µM [rising, full curve, poor fit]","2.24 µM [rising, partial curve, poor fit]"
COC(=O)N/N=C/c1cn(CCCOc2ccccc2)c2ccccc12,"25.1 µM [rising, single point]","14.1 µM [rising, single point]"
O=C(O)C(CC1CCCCC1)N1CCS(=O)(=O)CC1 (stereo not drawn),,"0.0562 µM [rising, full curve, poor fit]"
Cn1c(C(=O)NCc2ccccc2)cc2oc3ccccc3c21,"12.6 µM [rising, partial curve]",
CCOC(=O)N1CCN(CC(O)COCc2ccc(OC)c(OC)c2)CC1 (stereo not drawn),"28.2 µM [rising, partial curve]",
O=C(CCC(=O)Nc1ccc(Br)cc1)N/N=C/c1cc([N+](=O)[O-])ccc1O,,"0.112 µM [falling, partial curve, poor fit]"
COc1ccc(NC(=S)NCC2CCN(c3ccc(OC)cc3)C2)cc1 (stereo not drawn),"15.8 µM [rising, single point]",

# Among those listed so far, these contain a furan ring, fused or not.
SMILES,AC50 [1],AC50 [2]
CCOc1ccccc1CNC(=O)c1oc2c(c1C)-c1nn(Cc3cccc(Cl)c3)cc1CC2,"15.8 µM [falling, partial curve]","11.2 µM [falling, partial curve]"
Cn1c(C(=O)NCc2ccccc2)cc2oc3ccccc3c21,"12.6 µM [rising, partial curve]",
